Test results taken from US20250361488A1.
These are yes or no findings as the source states them, for the method shown. Some binding calls cover weakened binding; strength is not graded here. Values belong to the binder of their own block, whether it stands above or below them.

How the values were obtained:
[1] = target: T1, recombinant E-selectin (UniProt P16581); experiment: in vitro cell adhesion assay, engineered MSCs on P&E selectin (FIG. 7 bar graph)
T1 sequence (looked up): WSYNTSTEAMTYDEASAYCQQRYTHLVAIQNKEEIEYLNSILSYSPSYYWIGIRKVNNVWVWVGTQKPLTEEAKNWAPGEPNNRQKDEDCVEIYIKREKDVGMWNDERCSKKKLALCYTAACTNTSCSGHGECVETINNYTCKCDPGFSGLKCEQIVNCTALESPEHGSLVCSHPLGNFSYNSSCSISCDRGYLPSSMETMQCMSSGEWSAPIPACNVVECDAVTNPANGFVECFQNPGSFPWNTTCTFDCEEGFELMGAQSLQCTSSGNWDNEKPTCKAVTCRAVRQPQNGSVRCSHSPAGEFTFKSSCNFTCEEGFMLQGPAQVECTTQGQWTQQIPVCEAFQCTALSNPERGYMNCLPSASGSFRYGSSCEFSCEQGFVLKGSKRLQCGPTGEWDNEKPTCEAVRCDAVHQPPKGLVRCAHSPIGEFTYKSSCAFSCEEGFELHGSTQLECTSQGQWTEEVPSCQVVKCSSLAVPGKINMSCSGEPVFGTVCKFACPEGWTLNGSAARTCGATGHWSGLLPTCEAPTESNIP

[2] = target: T1, recombinant E-selectin; experiment: in vitro cell adhesion assay, engineered MSCs on recombinant P&E selectin (FIG. 7)
[3] = target: T1, recombinant E-selectin; experiment: in vitro cell adhesion assay of engineered MSCs (FIG. 49D); substrate taken from the next sentence (P and E selectin)

binding [1]: binds
binding [2]: binds
B1: PSGL-1 expressed on engineered MSCs together with FUT7 (ligand, UniProt Q14242 42-412, looked up)
chain: QATEYEYLDYDFLPETEPPEMLRNSTDTTPLTGPGTPESTTVEPAARRSTGLDAGGAVTELTTELANMGNLSTDSAAMEIQTTQPAATEAQTTQPVPTEAQTTPLAATEAQTTRLTATEAQTTPLAATEAQTTPPAATEAQTTQPTGLEAQTTAPAAMEAQTTAPAAMEAQTTPPAAMEAQTTQTTAMEAQTTAPEATEAQTTQPTATEAQTTPLAAMEALSTEPSATEALSMEPTTKRGLFIPFSVSSVTHKGIPMAASNLSVNYPVGAPDHISVKQCLLAILILALVATIFFVCTVVLAVRLSRKGHMYPVRNYSPTEMVCISSLLPDGGEGPSATANGGLSKAKSPGLTPEPREDREGDDLTLHSFLP

binding [3]: binds
B2: PSGL-1 expressed on engineered MSCs together with FUT7 and ST3GAL4 (ligand, UniProt Q14242 42-412, looked up)
chain: B1 chain
modifications: sialic acid added post-translationally by ST3GAL4 (sites not given)
